Assay results as given in article doi:10.1101/354233.
Results are given in words; binding and its absence hold for the method and conditions named. Binding seen in cells or lysates may run through a third protein. Some results given as binding are weak or reduced against the parent protein; the word gives no strength. Sequences can lack the tags named with a protein.

The chains behind the UniProt entries cited, without tags or fusion partners.
UniProt O00506: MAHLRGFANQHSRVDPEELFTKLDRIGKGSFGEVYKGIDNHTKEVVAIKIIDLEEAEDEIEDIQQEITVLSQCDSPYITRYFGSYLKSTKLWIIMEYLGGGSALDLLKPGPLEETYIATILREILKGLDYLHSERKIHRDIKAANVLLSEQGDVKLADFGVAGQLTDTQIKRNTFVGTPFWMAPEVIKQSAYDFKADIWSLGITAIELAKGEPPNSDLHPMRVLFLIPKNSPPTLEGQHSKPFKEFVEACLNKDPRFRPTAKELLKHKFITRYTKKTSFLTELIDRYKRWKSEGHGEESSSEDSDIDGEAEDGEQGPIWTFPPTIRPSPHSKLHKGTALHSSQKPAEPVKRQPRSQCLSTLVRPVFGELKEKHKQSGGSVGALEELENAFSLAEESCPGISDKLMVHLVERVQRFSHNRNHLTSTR

Key:
[1] = target: T1, HA-tagged LATS2 (UniProt Q9NRM7); assay: co-IP
T1 sequence: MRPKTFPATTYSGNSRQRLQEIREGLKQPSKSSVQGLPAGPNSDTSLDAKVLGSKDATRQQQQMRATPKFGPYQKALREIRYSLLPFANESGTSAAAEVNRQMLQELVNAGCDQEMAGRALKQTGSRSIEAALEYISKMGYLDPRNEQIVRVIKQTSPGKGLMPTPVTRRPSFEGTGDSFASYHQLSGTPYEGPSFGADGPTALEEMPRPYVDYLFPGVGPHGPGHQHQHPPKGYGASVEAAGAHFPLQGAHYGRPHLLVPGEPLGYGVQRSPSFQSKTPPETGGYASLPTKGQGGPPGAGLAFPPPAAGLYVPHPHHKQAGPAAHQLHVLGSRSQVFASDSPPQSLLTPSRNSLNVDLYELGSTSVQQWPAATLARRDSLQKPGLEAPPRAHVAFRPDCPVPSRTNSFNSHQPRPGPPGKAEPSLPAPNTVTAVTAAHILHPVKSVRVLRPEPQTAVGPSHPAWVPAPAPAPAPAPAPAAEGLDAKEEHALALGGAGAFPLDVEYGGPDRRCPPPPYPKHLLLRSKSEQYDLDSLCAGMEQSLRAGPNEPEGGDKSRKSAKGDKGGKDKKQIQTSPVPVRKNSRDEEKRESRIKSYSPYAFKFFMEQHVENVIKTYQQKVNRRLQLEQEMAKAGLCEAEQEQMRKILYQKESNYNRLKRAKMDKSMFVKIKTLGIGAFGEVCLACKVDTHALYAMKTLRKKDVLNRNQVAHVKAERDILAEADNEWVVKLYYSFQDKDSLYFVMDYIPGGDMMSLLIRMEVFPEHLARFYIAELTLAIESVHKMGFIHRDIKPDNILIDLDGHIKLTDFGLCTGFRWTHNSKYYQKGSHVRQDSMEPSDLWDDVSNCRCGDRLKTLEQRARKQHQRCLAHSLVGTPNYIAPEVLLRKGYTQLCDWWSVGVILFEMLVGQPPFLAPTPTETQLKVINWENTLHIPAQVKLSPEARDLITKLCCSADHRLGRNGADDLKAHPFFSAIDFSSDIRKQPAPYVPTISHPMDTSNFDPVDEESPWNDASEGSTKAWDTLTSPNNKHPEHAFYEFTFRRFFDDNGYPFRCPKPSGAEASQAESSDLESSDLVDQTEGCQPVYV

[2] = target: T2, Myc-tagged LATS1 (UniProt O95835); assay: co-IP
T2 sequence: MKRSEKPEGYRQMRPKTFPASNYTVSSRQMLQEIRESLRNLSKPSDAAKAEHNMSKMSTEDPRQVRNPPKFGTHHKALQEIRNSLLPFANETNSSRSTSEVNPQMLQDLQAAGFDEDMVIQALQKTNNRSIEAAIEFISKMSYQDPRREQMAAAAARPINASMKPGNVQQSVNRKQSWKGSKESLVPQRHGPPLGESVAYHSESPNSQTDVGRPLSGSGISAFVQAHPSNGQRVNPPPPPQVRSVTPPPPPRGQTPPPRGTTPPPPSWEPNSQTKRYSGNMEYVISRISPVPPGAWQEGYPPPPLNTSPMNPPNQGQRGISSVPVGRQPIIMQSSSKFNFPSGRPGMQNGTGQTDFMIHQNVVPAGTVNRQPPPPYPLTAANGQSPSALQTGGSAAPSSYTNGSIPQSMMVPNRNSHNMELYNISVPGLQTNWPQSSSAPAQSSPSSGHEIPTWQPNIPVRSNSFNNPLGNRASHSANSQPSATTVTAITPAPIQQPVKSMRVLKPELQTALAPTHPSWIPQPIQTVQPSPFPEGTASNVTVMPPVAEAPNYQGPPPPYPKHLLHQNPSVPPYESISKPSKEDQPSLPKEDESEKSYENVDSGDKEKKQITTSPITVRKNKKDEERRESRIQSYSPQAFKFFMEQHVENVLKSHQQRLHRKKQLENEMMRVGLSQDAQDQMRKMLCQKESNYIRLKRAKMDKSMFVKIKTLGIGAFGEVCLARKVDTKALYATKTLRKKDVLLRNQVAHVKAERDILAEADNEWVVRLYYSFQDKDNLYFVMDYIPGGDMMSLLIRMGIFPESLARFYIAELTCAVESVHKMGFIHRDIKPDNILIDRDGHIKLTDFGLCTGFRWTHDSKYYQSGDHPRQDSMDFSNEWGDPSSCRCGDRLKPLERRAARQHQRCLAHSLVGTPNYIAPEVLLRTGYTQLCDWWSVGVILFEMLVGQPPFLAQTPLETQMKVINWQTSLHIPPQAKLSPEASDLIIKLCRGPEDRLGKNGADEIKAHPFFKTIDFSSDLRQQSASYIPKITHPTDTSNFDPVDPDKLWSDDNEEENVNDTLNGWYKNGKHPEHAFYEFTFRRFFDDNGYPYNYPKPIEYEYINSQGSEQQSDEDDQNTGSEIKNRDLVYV

**Q.** For “FLAG-tagged STK25 (from UniProt O00506 1-426) (enzyme)”, which binding [1] is on record?
**A.** Its binding is “binds”.

**Q.** “endogenous STK25 (from UniProt O00506 1-426) (enzyme)” was tested. Which binding [1] did it give?
**A.** The binding was “binds”.

**Q.** What about the binding [2] of the same substance?
**A.** The binding was “binds”.
